Results: paper PMC8319531, “Cryo-EM reveals conformational flexibility in apo DNA polymerase ζ” (The Journal of Biological Chemistry, 2021)
No constants are given. Whether binding was seen depends on the method and setting. Some results given as binding are weak or reduced against the parent protein; the word gives no strength. Sequences can lack the tags named with a protein.

Biological target: T1, Saccharomyces cerevisiae Rev7, accessory subunit of Polζ (S. cerevisiae), P38927
T1 chain: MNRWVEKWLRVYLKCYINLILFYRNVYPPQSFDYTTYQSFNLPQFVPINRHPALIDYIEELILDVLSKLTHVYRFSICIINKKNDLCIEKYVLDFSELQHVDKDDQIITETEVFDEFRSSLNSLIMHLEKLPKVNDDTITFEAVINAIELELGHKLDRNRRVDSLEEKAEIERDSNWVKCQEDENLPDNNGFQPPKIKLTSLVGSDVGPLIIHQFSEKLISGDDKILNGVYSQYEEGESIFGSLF
Test: cryo-EM structure; apo Polζ holoenzyme without DNA, subunits coexpressed in yeast and co-purified; single-particle cryo-EM, 4.11 Å consensus map, focused maps 3.65 Å and 3.72 Å; both purified
Settings: remark: other sources report otherwise

binding: binds
B1: Saccharomyces cerevisiae Rev7, accessory subunit of Polζ (natural protein, S. cerevisiae, UniProt P38927 1-245, looked up)
chain: T1 chain
notes: Rev7, S. cerevisiae; codon-optimized gene; Two copies (Rev7A, Rev7B) stand in the Polζ complex; also called Rev7B; yeast Rev7
